Measurements from US20260165325A1, “NEW SUBSTITUTED TETRAHYDROBENZOXAZEPINE” (BASF SE, priority 2022, published 2026).
Some entries share one result that the patent states for a list of compounds.

How the values were obtained:
[1] = system: Botrytis cinerea; assay: Activity against the grey mold Botrytis cinerea in the microtiterplate test; format: cell-based; details: 31 ppm active substance; microtiter plate
[2] = system: Botrytis cinerea; assay: Preventative fungicidal control of Botrytis cinerea on leaves of green pepper; format: in vivo; details: 250 ppm spray to run-off; inoculated next day; assessed after 5 days; untreated plants 90% infected
[3] = system: Corynespora cassiicola; assay: Activity against Corynespora cassiicola in the microtiterplate test; format: cell-based; details: 31 ppm active substance; microtiter plate, DOB media (ph 7)
[4] = system: Botrytis cinerea; assay: Long lasting control of Botrytis cinerea on leaves of green pepper; format: in vivo; details: 125 ppm spray to run-off; inoculated after 7 days; assessed after 5 days; untreated plants 90% infected
[5] = system: Sclerotinia sclerotiorum; assay: Preventative fungicidal control of white mold on soybeans caused by Sclerotinia sclerotiorum; format: in vivo; details: 250 ppm spray to run-off, assessed after 14 days, untreated plants 100% infected

| Structure (SMILES) | growth of the pathogen [1] [%] | growth of the pathogen (% diseased leaf area) [2] | growth of the pathogen [3] [%] | growth of the pathogen (% diseased leaf area) [4] | growth of the pathogen (% diseased leaf area) [5] |
| --- | --- | --- | --- | --- | --- |
| Cc1cc(C2NC(C)C(C)(C)Oc3ccccc32)cnc1C(F)F (mixture of isomers) [Ex-5] | ≤ 1 | at most 11% |  |  |  |
| Cc1cc(C2NC(C)C(C)(C)Oc3c(F)cccc32)cnc1C (mixture of isomers) [Ex-6] | ≤ 1 | at most 11% | ≤ 15 | at most 15% |  |
| Cc1cc(C2NC(C)C(C)(C)Oc3c(F)cccc32)cnc1C(F)F (mixture of isomers) [Ex-7] | ≤ 1 | at most 11% | ≤ 15 | at most 15% | at most 14% |
| Cc1cc(C2c3ccccc3OCC3(CC3)N2C)cnc1C(F)F (centres unmarked) [Ex-1, 5-(6-(difluoromethyl)-5-methylpyridin-3-yl)-4-methyl-4,5-dihydro-2H-spiro[benzo[f][1,4]oxazepine-3,1′-cyclopropane]] | ≤ 1 | at most 11% | ≤ 15 |  |  |
